The exact form of at least one protein or probe is not confirmed.

The target in the data set is NarP (SO3982), phosphorylated (Shewanella oneidensis MR-1) (UniProt Q8EAC5). In words: EMSA. To be noted: carbamoyl phosphate-phosphorylated; EMSA as described for ArcA by Gao et al. [33] with SYBR Green staining; binding buffer; recombinant protein; residues 1-209; protein details: N-terminal 6xHis (pTP247, pDEST17-derived); label: none (SYBR Green staining); probe letters rebuilt from the primers and the genome.

On to “TTGCGAGGCTCAGTTTTATCACTCGCCATAGCCCCCGCAGCCATAAAGCTGGCGGCAACCAATGCACTTAATGCAAAAGTCTTACCTGTCATCTTCTTCATCATCTCATCTCCGCGTTGCATTTTTGTTGTAAAACACGACATCTCCAGCGCCAAAGTTAGTAGCTAAATACCGCTAAAAATATACCTCTTAGGGGGTATCTGAAACGAAGTTTGCGCTAGATCAAAATGTAATAGTGTTGTTGTTCACACTTCTATGCTTTTGTTAATGTAATACATTATTTTCTAATGTAAAAAACACGGCTAAAGTACCATTAGCTCAAGCGCCACAAGGTATTCGACATATGAAACGAGGCAGTCTTACCTCAAAAATTCTGGGTTTAATGTTAGTACTGATTTTGCTTTCTAGCAGCCTAGCGATTTTCGCAATCATCAATTTGTCATACAGCTTAGGCGATGCGAAAGCCATCAACGCTTCGGGTTCACTGCGGATGCAAAGCTATCGGCTGATGTTTTACGCCAATTCTGG (double strand) [narP-nrfA promoter DNA]”, for which the binding result was “binds”.
